Assay results published in the supplement of paper PMC12067093, “Discovery and optimisation of a covalent ligand for TRIM25 and its application to targeted protein ubiquitination” (Chemical Science, 2025).
The list shows a part of the results.

The chains behind the UniProt entries cited, without tags or fusion partners. Where a name states a change or a piece, a line headed by the entry shows the natural chain unless it says otherwise.
UniProt P07737, whole entry, looked up: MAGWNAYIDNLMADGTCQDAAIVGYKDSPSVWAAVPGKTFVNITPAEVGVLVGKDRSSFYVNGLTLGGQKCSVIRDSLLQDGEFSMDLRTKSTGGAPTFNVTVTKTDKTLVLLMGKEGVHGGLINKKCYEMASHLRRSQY
UniProt P37287: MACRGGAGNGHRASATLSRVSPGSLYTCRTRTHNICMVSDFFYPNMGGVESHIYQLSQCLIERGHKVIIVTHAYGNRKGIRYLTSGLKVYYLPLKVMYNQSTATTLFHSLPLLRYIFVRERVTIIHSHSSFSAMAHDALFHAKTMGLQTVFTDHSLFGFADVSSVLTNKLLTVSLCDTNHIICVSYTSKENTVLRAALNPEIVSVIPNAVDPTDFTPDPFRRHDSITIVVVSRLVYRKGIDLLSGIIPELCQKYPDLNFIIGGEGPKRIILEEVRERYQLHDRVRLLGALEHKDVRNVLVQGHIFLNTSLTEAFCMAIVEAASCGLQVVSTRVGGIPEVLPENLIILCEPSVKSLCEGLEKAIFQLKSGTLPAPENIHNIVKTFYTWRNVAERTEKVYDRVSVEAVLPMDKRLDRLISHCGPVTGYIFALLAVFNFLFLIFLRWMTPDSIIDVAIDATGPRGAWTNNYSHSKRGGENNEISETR
UniProt O15067: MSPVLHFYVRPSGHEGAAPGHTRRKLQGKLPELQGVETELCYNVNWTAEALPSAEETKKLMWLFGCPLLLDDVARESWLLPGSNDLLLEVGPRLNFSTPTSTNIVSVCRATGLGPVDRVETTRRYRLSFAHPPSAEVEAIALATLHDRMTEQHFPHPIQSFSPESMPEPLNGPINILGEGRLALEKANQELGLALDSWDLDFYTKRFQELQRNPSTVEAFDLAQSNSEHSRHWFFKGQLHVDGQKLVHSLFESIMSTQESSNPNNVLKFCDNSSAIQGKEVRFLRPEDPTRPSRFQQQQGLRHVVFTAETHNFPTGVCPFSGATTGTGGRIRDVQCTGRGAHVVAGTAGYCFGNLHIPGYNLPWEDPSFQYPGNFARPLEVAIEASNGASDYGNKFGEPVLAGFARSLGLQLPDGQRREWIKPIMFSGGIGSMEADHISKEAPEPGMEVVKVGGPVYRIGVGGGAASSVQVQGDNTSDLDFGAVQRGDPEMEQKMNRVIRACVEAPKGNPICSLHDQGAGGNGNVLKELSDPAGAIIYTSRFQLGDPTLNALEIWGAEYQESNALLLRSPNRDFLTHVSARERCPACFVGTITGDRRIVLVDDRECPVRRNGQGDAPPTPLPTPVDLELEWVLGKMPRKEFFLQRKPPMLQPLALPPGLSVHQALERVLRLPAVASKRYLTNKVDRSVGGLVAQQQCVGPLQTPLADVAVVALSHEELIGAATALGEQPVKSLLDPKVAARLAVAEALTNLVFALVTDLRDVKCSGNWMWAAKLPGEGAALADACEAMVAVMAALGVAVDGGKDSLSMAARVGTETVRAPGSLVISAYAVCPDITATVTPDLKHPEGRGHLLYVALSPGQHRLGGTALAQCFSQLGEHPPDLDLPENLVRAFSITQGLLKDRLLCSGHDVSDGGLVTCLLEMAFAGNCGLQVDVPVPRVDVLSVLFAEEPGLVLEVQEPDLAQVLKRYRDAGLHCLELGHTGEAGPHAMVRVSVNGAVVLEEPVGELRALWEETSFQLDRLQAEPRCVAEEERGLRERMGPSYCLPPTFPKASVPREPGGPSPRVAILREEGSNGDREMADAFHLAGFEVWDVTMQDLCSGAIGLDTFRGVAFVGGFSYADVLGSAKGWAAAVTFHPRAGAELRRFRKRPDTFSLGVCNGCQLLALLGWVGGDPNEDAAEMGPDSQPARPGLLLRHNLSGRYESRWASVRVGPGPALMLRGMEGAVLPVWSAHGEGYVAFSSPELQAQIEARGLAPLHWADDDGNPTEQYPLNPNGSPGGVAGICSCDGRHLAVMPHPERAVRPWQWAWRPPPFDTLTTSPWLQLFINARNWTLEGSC
UniProt Q01813: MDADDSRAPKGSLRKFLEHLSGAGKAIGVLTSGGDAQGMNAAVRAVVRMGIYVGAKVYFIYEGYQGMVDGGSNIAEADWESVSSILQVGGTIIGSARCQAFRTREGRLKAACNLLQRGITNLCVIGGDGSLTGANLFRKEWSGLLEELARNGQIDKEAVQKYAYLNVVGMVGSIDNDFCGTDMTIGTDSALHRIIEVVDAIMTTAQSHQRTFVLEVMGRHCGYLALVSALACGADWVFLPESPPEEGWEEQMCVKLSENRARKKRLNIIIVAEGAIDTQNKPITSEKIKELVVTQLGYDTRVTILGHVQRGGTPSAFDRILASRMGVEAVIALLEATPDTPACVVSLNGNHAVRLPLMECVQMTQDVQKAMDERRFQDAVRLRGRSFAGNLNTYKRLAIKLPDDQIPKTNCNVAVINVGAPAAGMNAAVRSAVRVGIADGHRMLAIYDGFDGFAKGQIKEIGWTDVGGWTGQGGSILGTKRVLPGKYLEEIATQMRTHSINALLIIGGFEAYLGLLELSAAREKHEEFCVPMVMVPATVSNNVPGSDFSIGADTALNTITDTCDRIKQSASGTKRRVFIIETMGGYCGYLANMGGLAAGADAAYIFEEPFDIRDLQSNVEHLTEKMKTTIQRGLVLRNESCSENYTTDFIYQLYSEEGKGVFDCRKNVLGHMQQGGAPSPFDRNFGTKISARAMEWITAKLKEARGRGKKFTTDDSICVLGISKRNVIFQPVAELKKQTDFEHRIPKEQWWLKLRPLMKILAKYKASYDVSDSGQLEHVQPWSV
UniProt Q9BRX2, whole entry, looked up: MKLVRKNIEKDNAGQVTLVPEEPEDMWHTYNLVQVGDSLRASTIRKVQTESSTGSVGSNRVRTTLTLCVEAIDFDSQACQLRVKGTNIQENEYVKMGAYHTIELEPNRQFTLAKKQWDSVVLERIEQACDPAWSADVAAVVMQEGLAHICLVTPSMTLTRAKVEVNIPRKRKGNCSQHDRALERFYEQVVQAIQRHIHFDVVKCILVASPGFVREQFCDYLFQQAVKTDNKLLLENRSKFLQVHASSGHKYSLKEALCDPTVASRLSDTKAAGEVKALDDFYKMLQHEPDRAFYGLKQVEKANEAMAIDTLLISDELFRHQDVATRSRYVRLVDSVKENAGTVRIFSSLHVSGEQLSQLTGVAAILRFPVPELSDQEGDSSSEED
UniProt O43175: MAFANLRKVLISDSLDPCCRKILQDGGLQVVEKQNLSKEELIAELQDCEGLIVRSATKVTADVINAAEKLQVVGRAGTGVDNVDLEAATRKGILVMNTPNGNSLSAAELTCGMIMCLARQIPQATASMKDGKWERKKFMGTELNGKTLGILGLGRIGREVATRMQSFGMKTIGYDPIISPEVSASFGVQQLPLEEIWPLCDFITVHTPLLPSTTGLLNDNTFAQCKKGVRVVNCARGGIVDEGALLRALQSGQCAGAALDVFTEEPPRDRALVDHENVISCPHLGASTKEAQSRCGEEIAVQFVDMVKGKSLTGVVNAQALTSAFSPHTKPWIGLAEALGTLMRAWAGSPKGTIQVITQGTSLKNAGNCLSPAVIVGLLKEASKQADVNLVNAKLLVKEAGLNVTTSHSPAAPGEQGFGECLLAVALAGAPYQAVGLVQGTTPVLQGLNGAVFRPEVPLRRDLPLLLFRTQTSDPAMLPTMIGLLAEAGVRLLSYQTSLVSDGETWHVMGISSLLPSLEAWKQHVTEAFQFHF
UniProt O43933: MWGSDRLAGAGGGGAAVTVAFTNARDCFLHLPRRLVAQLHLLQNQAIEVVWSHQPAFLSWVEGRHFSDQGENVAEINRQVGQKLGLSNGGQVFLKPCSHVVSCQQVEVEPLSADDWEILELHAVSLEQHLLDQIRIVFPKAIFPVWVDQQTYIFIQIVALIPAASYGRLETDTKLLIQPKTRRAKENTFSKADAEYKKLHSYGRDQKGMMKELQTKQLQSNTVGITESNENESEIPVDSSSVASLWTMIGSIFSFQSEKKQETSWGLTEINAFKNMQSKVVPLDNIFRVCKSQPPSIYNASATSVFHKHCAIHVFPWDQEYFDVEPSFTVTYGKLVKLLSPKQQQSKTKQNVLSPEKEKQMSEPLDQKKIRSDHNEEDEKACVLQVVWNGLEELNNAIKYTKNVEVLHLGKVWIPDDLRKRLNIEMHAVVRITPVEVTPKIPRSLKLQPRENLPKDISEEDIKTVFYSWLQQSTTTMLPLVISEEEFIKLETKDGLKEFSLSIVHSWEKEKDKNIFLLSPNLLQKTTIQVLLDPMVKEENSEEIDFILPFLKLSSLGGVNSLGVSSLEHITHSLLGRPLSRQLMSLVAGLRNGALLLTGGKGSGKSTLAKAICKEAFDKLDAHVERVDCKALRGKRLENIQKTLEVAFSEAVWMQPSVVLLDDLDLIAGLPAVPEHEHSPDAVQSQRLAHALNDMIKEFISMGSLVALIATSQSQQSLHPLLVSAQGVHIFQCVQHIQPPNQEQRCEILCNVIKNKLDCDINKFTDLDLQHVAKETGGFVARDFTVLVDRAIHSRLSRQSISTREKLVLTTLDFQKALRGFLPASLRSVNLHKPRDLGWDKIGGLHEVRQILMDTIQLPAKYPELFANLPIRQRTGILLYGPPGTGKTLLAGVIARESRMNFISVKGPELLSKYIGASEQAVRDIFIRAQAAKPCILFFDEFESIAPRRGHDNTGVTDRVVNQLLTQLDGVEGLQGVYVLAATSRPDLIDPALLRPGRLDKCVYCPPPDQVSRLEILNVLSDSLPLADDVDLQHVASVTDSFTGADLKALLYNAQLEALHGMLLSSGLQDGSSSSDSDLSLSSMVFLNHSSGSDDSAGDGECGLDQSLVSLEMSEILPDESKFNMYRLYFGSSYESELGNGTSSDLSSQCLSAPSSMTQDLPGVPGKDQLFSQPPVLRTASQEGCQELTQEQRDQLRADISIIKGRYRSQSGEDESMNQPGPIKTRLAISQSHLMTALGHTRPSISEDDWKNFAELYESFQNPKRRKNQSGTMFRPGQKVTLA
UniProt Q8IWS0: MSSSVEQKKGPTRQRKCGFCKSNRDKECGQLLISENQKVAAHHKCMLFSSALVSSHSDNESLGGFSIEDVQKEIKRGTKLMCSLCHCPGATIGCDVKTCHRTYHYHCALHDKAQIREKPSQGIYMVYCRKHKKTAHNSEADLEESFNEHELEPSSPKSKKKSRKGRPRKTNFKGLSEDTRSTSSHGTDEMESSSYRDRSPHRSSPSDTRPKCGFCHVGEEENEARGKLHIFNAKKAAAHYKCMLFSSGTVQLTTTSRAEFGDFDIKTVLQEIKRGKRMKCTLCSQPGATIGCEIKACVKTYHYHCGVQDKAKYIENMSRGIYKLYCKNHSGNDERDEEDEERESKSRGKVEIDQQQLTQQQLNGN
UniProt P40855: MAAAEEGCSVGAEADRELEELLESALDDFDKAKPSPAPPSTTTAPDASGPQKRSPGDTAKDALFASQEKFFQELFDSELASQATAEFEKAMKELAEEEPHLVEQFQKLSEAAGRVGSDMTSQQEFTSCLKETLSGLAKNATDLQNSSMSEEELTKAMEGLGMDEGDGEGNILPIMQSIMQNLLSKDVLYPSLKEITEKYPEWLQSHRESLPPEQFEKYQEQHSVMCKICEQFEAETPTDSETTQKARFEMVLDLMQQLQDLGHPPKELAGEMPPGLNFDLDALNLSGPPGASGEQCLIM
UniProt A6NDG6: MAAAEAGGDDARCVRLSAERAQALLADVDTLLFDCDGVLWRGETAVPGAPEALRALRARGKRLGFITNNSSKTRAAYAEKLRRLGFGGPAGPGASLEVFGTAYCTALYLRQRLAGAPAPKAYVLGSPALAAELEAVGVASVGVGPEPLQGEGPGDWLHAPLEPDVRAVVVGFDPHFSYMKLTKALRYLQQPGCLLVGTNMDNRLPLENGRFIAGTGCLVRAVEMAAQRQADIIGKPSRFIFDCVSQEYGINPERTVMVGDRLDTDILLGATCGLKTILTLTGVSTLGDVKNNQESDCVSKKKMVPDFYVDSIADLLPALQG

Compound: CC1Cc2ccccc2N1C(=O)C1CCCN(C1)C(=O)CCl (mixture of isomers) [TRIM25 ligand 11 (diastereomer mixture)]
Assay: probe-labelled cysteine peptide fold change vs DMSO (competition) (log2 fold change); higher = less target engagement (more negative = stronger competition)
Details: 10 µM; THP-1; incubation time: 4 h
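Note: competitive chemoproteomic profiling in live THP-1 cells with an iodoacetamide desthiobiotin (IA-DTB) probe, comparing probe-labelled peptide intensities in compound-treated cells against DMSO-treated controls.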

Target | probe-labelled cysteine peptide fold change
PFN1_P07737_128_KCYEMASHLR (UniProt P07737) | -0.517
PIGA_P37287_348_VGGIPEVLPENLIILCEPSVK (UniProt P37287) | -0.0812
PFAS_O15067_871_LGGTALAQCFSQLGEHPPDLDLPENLVR (UniProt O15067) | 0.0579
PFKP_Q01813_718_FTTDDSICVLGISKR (UniProt Q01813) | -0.317
PELO_Q9BRX2_204_CILVASPGFVR (UniProt Q9BRX2) | 0.0971
PGM3_O95394_168_LSQSVIDGVTVLGGQFHDYGLLTTPQLHYMVYCR (UniProt O95394) | -0.00373
PHIP_Q8WWQ0_1020_YEVGLPTLCCLK (UniProt Q8WWQ0) | 0.049
PFN1_P07737_128_CYEMASHLR (UniProt P07737) | -0.0273
PHGDH_O43175_48_QNLSKEELIAELQDCEGLIVR (UniProt O43175) | -0.367
PEX1_O43933_1185_TASQEGCQELTQEQR (UniProt O43933) | 0.0313
PHF6_Q8IWS0_82_LMCSLCHCPGATIGCDVK (UniProt Q8IWS0) | 0.18
PEX19_P40855_229_ICEQFEAETPTDSETTQK (UniProt P40855) | 0.0705
PFAS_O15067_975_DAGLHCLELGHTGEAGPHAMVR (UniProt O15067) | -0.0892
PHIP_Q8WWQ0_1692_KLQYAKPEDLEQNNVHPIRDEVLPSSTCNFLSETNNVK (UniProt Q8WWQ0) | 0.116
PGP_A6NDG6_272_TVMVGDRLDTDILLGATCGLK (UniProt A6NDG6) | -0.0933

Single entries from the list.
probe-labelled cysteine peptide fold change, PHF6_Q8IWS0_82_LMCSLCHCPGATIGCDVK (UniProt Q8IWS0) is entered as 0.18
probe-labelled cysteine peptide fold change, PHGDH_O43175_48_QNLSKEELIAELQDCEGLIVR (UniProt O43175) is entered as -0.367
